Results are given in words; binding and its absence hold for the method and conditions named. Some results given as binding are weak or reduced against the parent protein; the word gives no strength. For some of these results: Where a sequence is shown, tags or fusion partners need not be part of it.

Test [1] addresses T1, ….
T1 sequence (peptide): KKVVVVVKK
The test is described as follows: HDX-MS, 30 µM proSP-C BRICHOS and 40 µM peptide.

The target in test [2] is T2, ….
T2 sequence (peptide): KKVVVVVVVKK
The test is described as follows: HDX-MS, 30 µM proSP-C BRICHOS and 40 µM peptide. The source holds these as a separate data set.

Test [3] has as its target proSP-C BRICHOS (recombinant human, His59 to Ile197 of proSP-C, Examples 4-8) (human) (UniProt P11686). The test is described as follows: gel filtration on Superdex75, self-association of proSP-C BRICHOS. (In gel filtration, larger molecules generally elute earlier.)
For test [4], the target named is Aβ(M1-42) (human). The test is described as follows: gel filtration on Superdex75 and SDS PAGE of fractions, 0 and 2 h incubation.

B1: proSP-C BRICHOS (as used beside CTC in the HDX study of Example 2) (protein)
chain: TTATFSIGSTGLVVYDYQQLLIAYKPAPGTCCYIMKIAPESIPSLEALNRKVHNFQMECSLQAKPAVPTSKLGQAEGRDAGSAPSGGDPAFLGMAVNTLCGEVPLYYI
On to B1, for which the binding entry in test [1] and in test [2] was “binds” throughout.

B2: proSP-C BRICHOS (recombinant human, His59 to Ile197 of proSP-C, Examples 4-8) (protein)
chain: HMSQKHTEMVLEMSIGAPEAQQRLALSEHLVTTATFSIGSTGLVVYDYQQLLIAYKPAPGTCCYIMKIAPESIPSLEALNRKVHNFQMECSLQAKPAVPTSKLGQAEGRDAGSAPSGGDPAFLGMAVNTLCGEVPLYYI
For B2, the binding result in test [3] and in test [4] was “binds” each time.

The values above are taken from patent US20140030274A1.
